Measurements reported in PubChem BioAssay AID504808 (Drosophila RNAi Screening Center, 2011).

- Screen: 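Chromatin factors that keep E2F targets switched off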 (primary screen)
- Cells: Drosophila S2 cells
- Knock-down reagent: long dsRNA against Drosophila genes
- Read-out: 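Firefly luciferase driven by E2F sites, normalised to Renilla luciferase on the same minimal promoter, measured by plate reader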
- Reading the numbers: E2F firefly: higher = more E2F reporter activity; Renilla normaliser: higher = more normaliser reporter signal
- Rule for the call: 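Called active if the normalised E2F reporter went up by over 50%; the cutoff is arbitrary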
In all, the deposit lists about 21,000 reagents; below is an unselected part of those that have a named target and a result. In the full data, 18 (0.084%) got an active call. 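Raw counts without plate normalisation, one of two replicates; the ratio scores behind the calls were not deposited.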 A number with no mark means an inactive call. The numbers tell different reagents against one gene apart. A plus sign joins genes that one reagent is predicted to hit. The record does not give: the amount of reagent, the time to read-out.

gene knocked down,reagent,"E2F firefly, rep 1","Renilla normaliser, rep 1"
djl,1,1.22e5,6972
e(y)2b,1,1.28e5,6975
HisT,1,1.44e5,5388
HisT,2,1.37e5,5543
HisT,3,3047,130
CG5612,1,1.11e5,7531
RpS30,1,64914,6931
Six4,1,1.32e5,7160
CG17977,1,1.45e5,4181
ppk28,1,1.51e5,6065
CG15014,1,87922,3559
Obp44a,1,1.31e5,4342
CG12105,1,85525,3971
Pcyt1,1,68360,3587
Sgs5,1,1.14e5,5948
CG13587,1,1.03e5,4453
CG11293 (retired record),1,99708,3808
CG5267,1,1.40e5,4866
Hem,1,83190,3300
Gug,1,84483,3671
CG3511,1,81398,3462
CG13243,1,89026,3793
ush,1,71088,3926
CG5002,1,85450,3179

Part of the list above, set out differently.
{"gene knocked down":"Gug","reagent":1,"E2F firefly, rep 1":84483,"Renilla normaliser, rep 1":3671}
{"gene knocked down":"CG3511","reagent":1,"E2F firefly, rep 1":81398,"Renilla normaliser, rep 1":3462}
{"gene knocked down":"CG13243","reagent":1,"E2F firefly, rep 1":89026,"Renilla normaliser, rep 1":3793}
{"gene knocked down":"ush","reagent":1,"E2F firefly, rep 1":71088,"Renilla normaliser, rep 1":3926}

The results go on.
gene knocked down,reagent,"E2F firefly, rep 1","Renilla normaliser, rep 1"
CG5098,1,68105,3512
18w,1,82263,3631
Nf-YC,1,57326,3682
Cpr47Ec,1,1.01e5,4151
Uch,1,84800,3484
CG31897,1,1.15e5,6408
Muc96D,1,84718,2408
CG11257,1,1.43e5,5069
vri,1,1.37e5,4557
DIP-delta,1,84931,3550
DIP-delta,2,95672,3976
Idi,1,73571,3285
t-Grip91,1,1.30e5,6165
CG42534,1,89722,4594
CG42534,2,75560,4349
CG42534,3,1.14e5,5424
CG32445,1,1.11e5,7719
CG31676,1,1.01e5,4532
CG14756,1,1.32e5,4381
CG6191,1,3094,186
TwdlJ,1,1.04e5,6882
Grik,1,70661,3195
Grik,2,1.39e5,6614
CG1265,1,95078,4426
APC7,1,7810,744
ETH,1,1.07e5,4404
CG33695 + cana,1,1.01e5,7524
CG33695 + cana,2,1.52e5,5171
Slc25A46a,1,8401,804
CG14718,1,83393,4151
dpa,1,1.57e5,4507
LysRS,1,7634,748
CG34193,1,1.64e5,7563
